Data published in publication PMC9177701, “Taf2 mediates DNA binding of Taf14” (Nature Communications, 2022).
These are yes or no findings as the source states them, for the method shown. A result given as binding can be weak or reduced; the word gives no strength.

The chains behind the UniProt entries cited, without tags or fusion partners. Where a name states a change or a piece, a line headed by the entry shows the natural chain unless it says otherwise.
UniProt P35189: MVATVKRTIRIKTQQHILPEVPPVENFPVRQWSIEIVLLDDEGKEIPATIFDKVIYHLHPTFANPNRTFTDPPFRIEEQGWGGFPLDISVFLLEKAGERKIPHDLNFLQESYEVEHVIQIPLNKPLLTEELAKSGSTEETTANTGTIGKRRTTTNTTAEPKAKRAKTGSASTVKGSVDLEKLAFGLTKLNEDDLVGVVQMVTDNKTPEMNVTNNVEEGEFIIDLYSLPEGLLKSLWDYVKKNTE
UniProt P23255: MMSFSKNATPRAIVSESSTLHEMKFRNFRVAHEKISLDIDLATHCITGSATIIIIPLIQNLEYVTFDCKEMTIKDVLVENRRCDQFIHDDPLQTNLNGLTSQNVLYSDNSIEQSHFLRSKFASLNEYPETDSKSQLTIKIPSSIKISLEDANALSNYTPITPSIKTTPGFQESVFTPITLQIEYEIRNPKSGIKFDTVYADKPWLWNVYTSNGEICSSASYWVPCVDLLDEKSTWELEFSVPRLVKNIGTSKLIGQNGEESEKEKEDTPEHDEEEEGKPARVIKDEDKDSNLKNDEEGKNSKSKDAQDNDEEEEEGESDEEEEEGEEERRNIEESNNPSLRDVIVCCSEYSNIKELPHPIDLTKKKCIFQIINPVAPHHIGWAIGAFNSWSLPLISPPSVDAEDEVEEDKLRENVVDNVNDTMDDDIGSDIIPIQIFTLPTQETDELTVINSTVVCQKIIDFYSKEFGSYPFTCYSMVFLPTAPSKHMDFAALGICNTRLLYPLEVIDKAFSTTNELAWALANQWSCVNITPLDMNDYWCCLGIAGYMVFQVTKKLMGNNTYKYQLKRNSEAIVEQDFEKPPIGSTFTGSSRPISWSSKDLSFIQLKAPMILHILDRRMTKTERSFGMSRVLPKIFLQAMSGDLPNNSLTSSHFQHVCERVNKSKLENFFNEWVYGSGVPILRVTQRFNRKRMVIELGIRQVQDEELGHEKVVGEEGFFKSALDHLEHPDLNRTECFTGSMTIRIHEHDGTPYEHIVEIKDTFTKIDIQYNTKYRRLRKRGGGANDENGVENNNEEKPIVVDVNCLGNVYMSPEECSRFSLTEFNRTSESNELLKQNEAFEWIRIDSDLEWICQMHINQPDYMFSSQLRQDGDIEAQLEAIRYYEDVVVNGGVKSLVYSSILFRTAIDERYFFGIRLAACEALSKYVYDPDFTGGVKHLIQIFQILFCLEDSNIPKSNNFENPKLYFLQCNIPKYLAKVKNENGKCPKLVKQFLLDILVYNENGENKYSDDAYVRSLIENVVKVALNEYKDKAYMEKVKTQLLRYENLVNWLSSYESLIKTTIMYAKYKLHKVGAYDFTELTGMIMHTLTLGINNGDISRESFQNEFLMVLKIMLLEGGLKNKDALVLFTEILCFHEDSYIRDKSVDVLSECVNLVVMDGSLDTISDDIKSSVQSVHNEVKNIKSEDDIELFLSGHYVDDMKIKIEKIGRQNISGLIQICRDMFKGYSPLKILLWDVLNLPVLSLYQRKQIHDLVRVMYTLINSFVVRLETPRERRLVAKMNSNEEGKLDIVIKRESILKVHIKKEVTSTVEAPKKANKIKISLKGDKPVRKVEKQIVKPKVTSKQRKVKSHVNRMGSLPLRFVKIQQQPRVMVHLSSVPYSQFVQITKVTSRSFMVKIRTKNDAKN

Biological target: Taf14ET (ET domain of Taf14, aa 168–243) (S. cerevisiae) (UniProt P35189)
Assay: crystal structure; Taf14ET incubated with the Taf2 peptide at 1:2.5; sitting-drop vapor diffusion at 23 °C, 2.4 M sodium malonate pH 7.0; 1.7 Å; both purified

binding: binds
B1: Taf2CT peptide (aa 1392–1402 of Taf2) (peptide, UniProt P23255 1392-1402, looked up)
peptide: SRSFMVKIRTK
notes: Taf2, subunit of yeast TFIID, C-terminal hxhKh motif-containing tail, aa 1392–1402; also called Taf2 peptide; C-terminal tail of Taf2; source: synthetic peptide (Synpeptide)
